The results in this text go back to PubChem BioAssay AID256 (DTP/NCI, 2004).

The assay relates to CD2F1 mice, L1210 leukemia ip, survival T/C. The assay is described as follows: NCI In Vivo Anticancer Drug Screen. Data for tumor model L1210 Leukemia (intraperitoneal) in CD2F1 (CDF1) mice. The settings on record: T/C endpoint: mean survival time, higher T/C = longer survival. Here is the method: The antitumor activity of compounds was measured in mice bearing transplantable tumors. Survival or tumor size were measured and the results are expressed as the measurement made in the treated group (T) divided by the measurement made in the vehicle treated control group (C). The tumor model used in this assay is L1210 Leukemia (intraperitoneal) in CD2F1 (CDF1) mice

[1] abbreviates: dose: 12.5 mg/kg/injection, schedule: Q01DX009 (ip), vehicle: saline.
Where [2] appears, read: dose: 100.0 mg/kg/injection, schedule: Q04DX003 (ip), vehicle: saline with Tween-80.
Where [3] appears, read: dose: 200.0 mg/kg/injection, schedule: Q04DX003 (ip), vehicle: saline with Tween-80.
[4] abbreviates: dose: 400.0 mg/kg/injection, schedule: Q04DX003 (ip), vehicle: saline with Tween-80.

The structures appear in SMILES notation. The list is a part of this screen's results and no random one: its compounds were picked by chemical class. Not every dose and run of a compound is shown. T/C gives the treated animals as a percentage of the vehicle group. Some entries give survivors of the animals treated and no T/C: the source files T/C as zero there, which appears to mark a toxic dose or a test without result, not a measured value. Some survivor counts are full or nearly so, which does not show that the dose was tolerated: the source hardly ever lists a survival T/C far under the control, and the zero likely stands for such cases as well. Counts of survivors are from the toxicity check (mostly the fifth day) where no day follows; animals may have died later. Schedules are NCI's codes, read here as Q, the interval in days (D) or hours (H), X, the number of doses. Some doses were run more than once; their values stand side by side, smallest first. For survival time, this PubChem deposit counts one and a half times the control or more as active, and values a quarter to a half above the control carry no call in these data; other NCI protocols may use other cut-offs. Some T/C values are marked as having no survivor count here; that says nothing about deaths at the dose. Some T/C values are followed by the survivors on the day toxicity was checked, most often the fifth; where neither a count nor a note follows, no animal had died by that day.

As to `N#CCCOP(=O)(OCCC#N)N(CCCl)CCCl`, the T/C by setting is: (dose: 62.5 mg/kg/injection, schedule: Q01DX005 (ip), vehicle: Klucel (hydroxypropylcellulose) (HPC)) 96 % of control; (dose: 125.0 mg/kg/injection, schedule: Q01DX001 (ip), vehicle: Klucel (hydroxypropylcellulose) (HPC)) 104 % of control; (dose: 125.0 mg/kg/injection, schedule: Q01DX005 (ip), vehicle: Klucel (hydroxypropylcellulose) (HPC)) 100 % of control; (dose: 250.0 mg/kg/injection, schedule: Q01DX001 (ip), vehicle: Klucel (hydroxypropylcellulose) (HPC)) 102 % of control; (dose: 250.0 mg/kg/injection, schedule: Q01DX005 (ip), vehicle: Klucel (hydroxypropylcellulose) (HPC)) 96 % of control; (dose: 500.0 mg/kg/injection, schedule: Q01DX001 (ip), vehicle: Klucel (hydroxypropylcellulose) (HPC)) 101 % of control. The T/C by setting is: (dose: 500.0 mg/kg/injection, schedule: Q01DX005 (ip), vehicle: Klucel (hydroxypropylcellulose) (HPC)) 94 % of control; (dose: 1000.0 mg/kg/injection, schedule: Q01DX001 (ip), vehicle: Klucel (hydroxypropylcellulose) (HPC)) 107 % of control; (dose: 1000.0 mg/kg/injection, schedule: Q01DX005 (ip), vehicle: Klucel (hydroxypropylcellulose) (HPC)) 104 % of control [5 of 6 alive].

Take `CCP1(=O)Nc2ccccc2N1C` (stereo not drawn): the T/C (dose: 12.5 mg/kg/injection, schedule: Q04DX002 (ip), vehicle: saline with Tween-80) was 93 % of control [survivor count not shown]; the T/C (dose: 25.0 mg/kg/injection, schedule: Q04DX002 (ip), vehicle: saline with Tween-80) was 104 % of control [survivor count not shown]; the T/C (dose: 50.0 mg/kg/injection, schedule: Q04DX002 (ip), vehicle: saline with Tween-80) was 93 % of control [survivor count not shown].

`C[As](C)SC1OC(CO)C(O)C(O)C1O` (stereo not drawn): the T/C (dose: 3.12 mg/kg/injection, schedule: Q01DX009 (ip), vehicle: saline) was 90 and 101 % of control; the T/C (dose: 6.25 mg/kg/injection, schedule: Q01DX009 (ip), vehicle: saline) was 95 and 104 % of control; the T/C under setting [1] is 96 and 97 % of control; the T/C (dose: 25.0 mg/kg/injection, schedule: Q01DX009 (ip), vehicle: saline, evaluated on day 20) was 107 % of control; the T/C (dose: 25.0 mg/kg/injection, schedule: Q01DX009 (ip), vehicle: saline, evaluated on day 30) was 103 and 109 % of control; the T/C (dose: 25.0 mg/kg/injection, schedule: Q04DX003 (ip), vehicle: saline) was 97 % of control. The T/C by setting is: (dose: 50.0 mg/kg/injection, schedule: Q01DX009 (ip), vehicle: saline, evaluated on day 20) 108 % of control; (dose: 50.0 mg/kg/injection, schedule: Q01DX009 (ip), vehicle: saline, evaluated on day 30) 104 and 109 % of control; (dose: 50.0 mg/kg/injection, schedule: Q04DX003 (ip), vehicle: saline) 97 % of control; (dose: 100.0 mg/kg/injection, schedule: Q04DX003 (ip), vehicle: saline) 100 % of control. Further, the survivor count (dose: 100.0 mg/kg/injection, schedule: Q01DX009 (ip), vehicle: saline) was 1 of 6 and 4 of 6.

On to `O=C(OC1CN2CCC1CC2)c1ccc(O)cc1` (stereo not drawn), for which the T/C (dose: 6.25 mg/kg/injection, schedule: Q01DX009 (ip), vehicle: saline with Tween-80) is 101 % of control; the T/C (dose: 12.5 mg/kg/injection, schedule: Q01DX009 (ip), vehicle: saline with Tween-80) is 99 % of control; the T/C (dose: 25.0 mg/kg/injection, schedule: Q01DX009 (ip), vehicle: saline with Tween-80) was 100 % of control. Besides, the survivor count under setting [2] was 2 of 6, the survivor count under setting [3] is 0 of 6 and the survivor count under setting [4] is 0 of 6.

Take `NC(=O)CCCc1ccc(N(CCCl)CCCl)cc1`: the T/C reads like this: (dose: 8.3 mg/kg/injection, schedule: Q01DX009 (ip), vehicle: saline) 111 % of control; under setting [1], 127 % of control; (dose: 18.8 mg/kg/injection, schedule: Q01DX009 (ip), vehicle: saline) 132 % of control; (dose: 28.2 mg/kg/injection, schedule: Q01DX009 (ip), vehicle: saline) 142 % of control.

`Cc1cn(C2CC3OP(C)(=O)OCC3O2)c(=O)[nH]c1=O` (stereo not drawn): the T/C was 102 % of control (dose: 12.5 mg/kg/injection, schedule: Q01DX005 (ip), vehicle: water); 101 % of control (dose: 25.0 mg/kg/injection, schedule: Q01DX005 (ip), vehicle: water); 111 % of control (dose: 50.0 mg/kg/injection, schedule: Q01DX005 (ip), vehicle: water); 101 % of control (dose: 100.0 mg/kg/injection, schedule: Q01DX005 (ip), vehicle: water); 107 % of control (dose: 200.0 mg/kg/injection, schedule: Q01DX005 (ip), vehicle: water).

Consider `CN1CCCOP1(=O)N(CCCl)CCCl` (stereo not drawn), for which the T/C (dose: 6.25 mg/kg/injection, schedule: Q01DX009 (ip), vehicle: other) is 94 % of control; the T/C (dose: 12.5 mg/kg/injection, schedule: Q01DX009 (ip), vehicle: other) is 102 % of control; the T/C (dose: 25.0 mg/kg/injection, schedule: Q01DX009 (ip), vehicle: other) is 102 % of control; the T/C (dose: 31.3 mg/kg/injection, schedule: Q01DX001 (ip), vehicle: other) was 115 % of control; the T/C (dose: 50.0 mg/kg/injection, schedule: Q01DX009 (ip), vehicle: other) was 102 % of control; the T/C (dose: 62.5 mg/kg/injection, schedule: Q01DX001 (ip), vehicle: other) is 98 % of control. Further, the T/C (dose: 100.0 mg/kg/injection, schedule: Q01DX009 (ip), vehicle: other) is 108 % of control; the T/C (dose: 125.0 mg/kg/injection, schedule: Q01DX001 (ip), vehicle: other) is 102 % of control; the T/C (dose: 250.0 mg/kg/injection, schedule: Q01DX001 (ip), vehicle: other) is 113 % of control; the T/C (dose: 500.0 mg/kg/injection, schedule: Q01DX001 (ip), vehicle: other) was 115 % of control [4 of 6 alive].

On to `OCC(Cl)C(SCc1ccccc1)c1ccccc1` (stereo not drawn), for which the T/C runs as follows: (dose: 100.0 mg/kg/injection, schedule: Q01DX009 (ip), vehicle: saline with Tween-80) 91 % of control; under setting [2], 92 % of control; (dose: 200.0 mg/kg/injection, schedule: Q01DX009 (ip), vehicle: saline with Tween-80) 91 % of control; under setting [3], 97 % of control; under setting [4], 101 % of control.

Turning to `CCN(CC)CCOC(=O)C(O)(c1ccccc1)c1cc(C)c(C)c(C)c1C` (stereo not drawn), the T/C (dose: 75.0 mg/kg/injection, schedule: Q01DX001 (ip), vehicle: other) was 100 % of control.

Consider `O=[N+]([O-])/N=C1\NN=CCC1N[N+](=O)[O-]` (stereo not drawn), for which the T/C reads like this: (dose: 100.0 mg/kg/injection, schedule: Q01DX001 (ip), vehicle: saline) 97 % of control [survivor count not shown]; (dose: 200.0 mg/kg/injection, schedule: Q01DX001 (ip), vehicle: saline) 100 % of control [survivor count not shown]; (dose: 400.0 mg/kg/injection, schedule: Q01DX001 (ip), vehicle: saline) 96 % of control [survivor count not shown].

Take `Cc1ccc2c(c1)C[P+](c1ccccc1)(c1ccccc1)CC2C.F[P-](F)(F)(F)(F)F` (stereo not drawn): the T/C under setting [2] is 95 % of control [2 of 3 alive]. In addition, the survivor count was 2 of 3 under setting [3] and 0 of 3 under setting [4].

In the case of `CC(O)CNC(C)C.O=[N+]([O-])c1cc([N+](=O)[O-])c(O)c([N+](=O)[O-])c1`, the T/C runs as follows: (dose: 75.0 mg/kg/injection, schedule: Q01DX001 (ip), vehicle: saline) 93 % of control; (dose: 150.0 mg/kg/injection, schedule: Q01DX001 (ip), vehicle: saline) 103 % of control. Further, the survivor count (dose: 300.0 mg/kg/injection, schedule: Q01DX001 (ip), vehicle: saline) is reported as 0 of 6.
